## Screening data, single-dose tests

By UniProt entry, the sequences of proteins in these tests, tags left out. Residues count along the entry.
UniProt P9WNZ1, whole entry: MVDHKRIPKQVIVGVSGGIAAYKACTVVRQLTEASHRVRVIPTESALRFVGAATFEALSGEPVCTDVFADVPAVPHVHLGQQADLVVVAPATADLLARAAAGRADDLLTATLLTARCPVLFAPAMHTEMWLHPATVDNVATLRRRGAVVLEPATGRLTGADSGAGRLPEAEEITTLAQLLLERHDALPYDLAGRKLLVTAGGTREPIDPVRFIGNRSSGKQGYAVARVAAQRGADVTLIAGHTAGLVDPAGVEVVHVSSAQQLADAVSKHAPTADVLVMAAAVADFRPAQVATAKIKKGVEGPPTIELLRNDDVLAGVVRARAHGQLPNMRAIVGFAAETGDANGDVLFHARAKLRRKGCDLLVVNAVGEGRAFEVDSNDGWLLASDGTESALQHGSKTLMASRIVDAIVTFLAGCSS
UniProt I6X8D2, whole entry: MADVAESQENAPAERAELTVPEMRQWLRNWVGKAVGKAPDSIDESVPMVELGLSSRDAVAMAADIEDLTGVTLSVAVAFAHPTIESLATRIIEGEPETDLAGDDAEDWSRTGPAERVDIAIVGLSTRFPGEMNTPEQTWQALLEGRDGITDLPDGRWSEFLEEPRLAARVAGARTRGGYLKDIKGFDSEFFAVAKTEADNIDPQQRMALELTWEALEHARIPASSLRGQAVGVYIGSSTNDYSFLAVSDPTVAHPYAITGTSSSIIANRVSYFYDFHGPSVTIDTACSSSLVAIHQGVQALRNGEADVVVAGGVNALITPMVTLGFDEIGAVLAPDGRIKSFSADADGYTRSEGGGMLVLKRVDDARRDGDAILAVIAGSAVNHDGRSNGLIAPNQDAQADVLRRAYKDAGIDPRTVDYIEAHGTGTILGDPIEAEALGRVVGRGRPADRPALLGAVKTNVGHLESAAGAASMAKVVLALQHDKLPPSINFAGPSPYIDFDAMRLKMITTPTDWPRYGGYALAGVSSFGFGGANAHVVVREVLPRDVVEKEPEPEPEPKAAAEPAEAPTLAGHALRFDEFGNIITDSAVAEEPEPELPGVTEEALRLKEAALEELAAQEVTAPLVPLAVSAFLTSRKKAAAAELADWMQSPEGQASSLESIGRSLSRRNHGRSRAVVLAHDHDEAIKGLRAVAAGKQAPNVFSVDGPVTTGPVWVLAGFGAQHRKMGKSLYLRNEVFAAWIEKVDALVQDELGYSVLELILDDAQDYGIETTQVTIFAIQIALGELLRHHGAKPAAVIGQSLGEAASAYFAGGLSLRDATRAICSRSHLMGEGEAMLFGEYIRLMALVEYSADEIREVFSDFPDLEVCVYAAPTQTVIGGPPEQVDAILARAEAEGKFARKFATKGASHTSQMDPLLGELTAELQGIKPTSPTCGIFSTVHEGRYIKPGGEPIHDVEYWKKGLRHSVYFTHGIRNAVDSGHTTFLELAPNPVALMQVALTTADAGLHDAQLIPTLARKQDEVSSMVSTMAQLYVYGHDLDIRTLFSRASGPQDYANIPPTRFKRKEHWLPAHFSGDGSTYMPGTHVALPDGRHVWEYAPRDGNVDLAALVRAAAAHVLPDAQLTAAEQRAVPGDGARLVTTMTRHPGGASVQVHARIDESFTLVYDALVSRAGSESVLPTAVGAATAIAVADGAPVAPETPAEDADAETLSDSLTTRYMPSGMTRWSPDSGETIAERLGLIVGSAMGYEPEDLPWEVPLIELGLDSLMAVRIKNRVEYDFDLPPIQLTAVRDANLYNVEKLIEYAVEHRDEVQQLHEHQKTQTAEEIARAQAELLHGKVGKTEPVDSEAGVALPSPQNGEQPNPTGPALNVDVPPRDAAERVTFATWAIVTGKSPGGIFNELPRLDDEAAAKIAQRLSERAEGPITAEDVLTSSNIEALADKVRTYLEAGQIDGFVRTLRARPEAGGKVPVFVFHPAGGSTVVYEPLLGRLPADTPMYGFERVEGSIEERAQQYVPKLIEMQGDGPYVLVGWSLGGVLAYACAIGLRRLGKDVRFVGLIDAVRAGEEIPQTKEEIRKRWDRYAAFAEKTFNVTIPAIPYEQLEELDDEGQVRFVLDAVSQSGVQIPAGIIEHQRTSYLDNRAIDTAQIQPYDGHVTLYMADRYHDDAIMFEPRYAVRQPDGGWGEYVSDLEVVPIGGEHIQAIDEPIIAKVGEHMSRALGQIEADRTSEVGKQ
UniProt P9WPC5, whole entry: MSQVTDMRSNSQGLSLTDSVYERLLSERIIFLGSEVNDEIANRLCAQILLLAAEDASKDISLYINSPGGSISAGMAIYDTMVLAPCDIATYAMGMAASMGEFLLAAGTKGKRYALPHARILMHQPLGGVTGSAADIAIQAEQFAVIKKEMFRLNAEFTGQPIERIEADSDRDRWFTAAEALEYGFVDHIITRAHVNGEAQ
UniProt P9WPC3, whole entry partner: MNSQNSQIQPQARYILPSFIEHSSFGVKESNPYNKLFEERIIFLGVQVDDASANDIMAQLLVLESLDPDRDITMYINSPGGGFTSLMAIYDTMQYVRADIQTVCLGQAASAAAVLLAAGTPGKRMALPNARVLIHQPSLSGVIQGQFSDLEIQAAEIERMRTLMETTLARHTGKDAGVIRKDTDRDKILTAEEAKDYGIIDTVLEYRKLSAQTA
UniProt A4I591, 1-473: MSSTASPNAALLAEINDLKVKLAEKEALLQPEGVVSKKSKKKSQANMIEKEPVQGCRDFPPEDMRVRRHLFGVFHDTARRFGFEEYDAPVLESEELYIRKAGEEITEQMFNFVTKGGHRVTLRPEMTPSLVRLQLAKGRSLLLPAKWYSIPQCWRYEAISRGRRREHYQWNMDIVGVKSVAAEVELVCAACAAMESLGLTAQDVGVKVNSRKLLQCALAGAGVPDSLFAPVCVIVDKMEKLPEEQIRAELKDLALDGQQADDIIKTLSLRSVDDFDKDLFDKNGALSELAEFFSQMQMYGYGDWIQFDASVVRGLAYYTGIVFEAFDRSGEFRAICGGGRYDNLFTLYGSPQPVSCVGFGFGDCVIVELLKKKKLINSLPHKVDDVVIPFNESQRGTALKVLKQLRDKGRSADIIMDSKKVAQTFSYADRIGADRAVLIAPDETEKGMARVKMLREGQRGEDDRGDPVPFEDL
UniProt P9WFT3, whole entry: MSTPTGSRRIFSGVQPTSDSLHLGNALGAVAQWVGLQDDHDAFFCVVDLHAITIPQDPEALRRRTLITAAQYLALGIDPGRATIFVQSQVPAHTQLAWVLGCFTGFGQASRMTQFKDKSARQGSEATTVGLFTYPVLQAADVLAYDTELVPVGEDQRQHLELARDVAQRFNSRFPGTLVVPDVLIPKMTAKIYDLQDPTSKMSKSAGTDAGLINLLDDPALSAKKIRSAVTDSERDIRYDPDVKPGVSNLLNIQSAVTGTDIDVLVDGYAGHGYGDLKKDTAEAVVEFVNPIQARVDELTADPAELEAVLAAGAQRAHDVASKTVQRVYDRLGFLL

CoaBC: 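Coenzyme A biosynthesis protein CoaBC, Mycobacterium tuberculosis (UniProt P9WNZ1). Enzyme assay of CoaBC with a phosphate dye (Biomol Green) read at 650 nm. Concentration: 30 µM. Higher reads as stronger inhibition, judged from the few compounds that gave an IC50. Most strong results did not repeat in a second test. About 67,000 compounds were tested under these conditions; 0.06% (about 40) showed 50% or more at least once.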
Pks13 thioesterase: 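Enzyme assay of the thioesterase domain of polyketide synthase 13; the read-out is not stated. Target: Polyketide synthase Pks13, Mycobacterium tuberculosis (UniProt I6X8D2). Tested at 30 µM. The record gives no direction; the compounds picked for IC50 retests had high values, so higher reads as stronger inhibition. About 67,000 compounds were tested under these conditions; 0.46% (about 300) showed 50% or more at least once.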
ClpP1P2: 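ClpP1P2, Mycobacterium tuberculosis (UniProt P9WPC5 and UniProt P9WPC3). Protease assay of ClpP1P2, read by the AMC dye that it sets free. Tested at 50 µM. Higher reads as stronger inhibition, judged from the few compounds that gave an IC50. Most other retested compounds had strongly negative values. About 69,000 compounds were tested under these conditions; 0.015% (about 10) showed 50% or more at least once.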
LiHisRS: 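Enzyme assay of histidyl-tRNA synthetase; the read-out is not stated. Target: Histidine-tRNA ligase, Leishmania infantum (UniProt A4I591). Compounds at 30 µM. Higher reads as stronger inhibition (inferred: compounds with an IC50 in retests scored well above the rest). The assay is labelled LdHisRS but filed under L. infantum. About 69,000 compounds were tested under these conditions; 0.6% (about 410) showed 50% or more at least once.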
MtTrpRS: 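Tryptophan-tRNA ligase, Mycobacterium tuberculosis (UniProt P9WFT3). Enzyme assay of tryptophanyl-tRNA synthetase; the read-out is not stated. Tested at 10 µM. Higher most likely means stronger inhibition; the record gives no direction and few retests gave an IC50. Of about 65,000 compounds tested this way, about 64 (0.098%) reached 50% or more in at least one test.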

Results are given as percent effect. The controls that fix the scale are not given in the record; negative values are as filed. This is an unselected part of the compounds tested. A dash means the value is not listed here; it may have been measured.

| # | SMILES | CoaBC | Pks13 thioesterase | ClpP1P2 | LiHisRS | MtTrpRS |
|---|---|---|---|---|---|---|
| 1 | `Cc1ccc(CN(CCCn2ccnc2)Cc2[nH]cnc2C)s1` | 7.056% | -24.1% | 3.8% | 20% | -4.812% |
| 2 | `CCS(=O)(=O)N1CCC(Nc2ccc(C#N)cc2F)CC1` | 3.733% | -4.376% | 9.133% | 9.649% | 1.141% |
| 3 | `CCCS(=O)(=O)N1C[C@@H]2CN(Cc3ccco3)CCO[C@@H]2C1` | 4.139% | -22.87% | -10.81% | 8.772% | -1.991% |
| 4 | `Cc1c(CNC(=O)C2CCCCCN2C)oc2ccccc12` (stereo not shown) | -15.33% | -24.52% | -1.878% | 14.29% | -4.87% |
| 5 | `CCn1cc(S(=O)(=O)NCC(OC)c2cccc(Cl)c2)cn1` (stereo not shown) | -5.462% | - | 0.003676% | 2.564% | -6.69% |
| 6 | `CN(C)c1cnn(CC(=O)N2CCCCCC2)c(=O)c1` | 3.121% | 6.047% | -4.769% | 13.22% | -1.095% |
| 7 | `CCNC(=O)C1CCN(c2cc(-c3ccccc3F)nc3ccnn23)C1` (stereo not shown) | 11.47% | 16.27% | -27.36% | 23.08% | 11.45% |
| 8 | `CC1=CCN(S(=O)(=O)c2cccc(C(=O)N3CCOCC3)c2)CC1` | 5.357% | -10.06% | -0.1962% | 2.083% | -4.231% |
| 9 | `CCCS(=O)(=O)CCN1CCOC(c2ccsc2)C1` (stereo not shown) | -0.1626% | -23.2% | -0.009919% | 9.244% | -5.133% |
| 10 | `O=C(c1cc(F)ccc1O)N1CCN(C2CCOCC2)CC1` | 1.901% | -41.53% | -2.61% | 18.99% | 1.971% |
| 11 | `COc1nc2c(cc1C(=O)NCCCc1csc(N)n1)CCC2` | 3.719% | -24.84% | -10.18% | 8% | 0.2901% |
| 12 | `Cn1ccnc1CN1CC[C@H](O)[C@@H](n2ccc(=O)[nH]c2=O)CC1` | 3.841% | -12.29% | -6.527% | 8% | - |
| 13 | `Cc1ccccc1C(=O)NCc1ccc(N2CCNC(=O)C2)c(F)c1` | -4.051% | -8.264% | -7.408% | 23.08% | 4.102% |
| 14 | `O=C(CCN1CCN(c2ccc3nncn3n2)CC1)N1CCCCC1` | 4.062% | -7.803% | -8.6% | 7.692% | -4.496% |
| 15 | `c1ccc(C(Cn2cnnc2)N2CCOCC2)nc1` (stereo not shown) | 4.545% | -17.85% | 7.959% | 20% | -6.101% |

For reference, 2 entries once more:

SMILES	CoaBC	Pks13 thioesterase	ClpP1P2	LiHisRS	MtTrpRS
Cc1ccc(CN(CCCn2ccnc2)Cc2[nH]cnc2C)s1	7.056%	-24.1%	3.8%	20%	-4.812%
c1ccc(C(Cn2cnnc2)N2CCOCC2)nc1 (stereo not shown)	4.545%	-17.85%	7.959%	20%	-6.101%

The values are deposited in ChEMBL (CHEMBL3988442, “University of Dundee, Small-Polar-MMV Screening Library” (2021)).